Publication PMC3310817, “Liver X Receptors Regulate the Transcriptional Activity of the Glucocorticoid Receptor: Implications for the Carbohydrate Metabolism”
The exact form of at least one protein or probe is not confirmed. Where cells or extracts were used, other partners may take part. For part of these data: Negatives hold for the conditions tested. Protein sequences can lack the tags named with them. For part of these data: Weaker means in comparison with the reference protein, sequence or condition of that experiment.

How the values were obtained:
[1] = molecular target: T1, glucocorticoid receptor (GR, nuclear extract of HeLa cells) (Homo sapiens) (UniProt P04150); assay: competition with a labelled probe; conditions: dexamethasone, EMSA: 10 mM HEPES pH 8.0, 0.1 mM EDTA, 2 mM DTT, 50 mM NaCl, 5 mM MgCl2, 50 mM KCl, 4 mM spermidine, 4% Ficoll, 1 ug poly(dI-dC), preincubation 10 min 4 C, protein in an extract
T1 sequence (looked up, limits assumed): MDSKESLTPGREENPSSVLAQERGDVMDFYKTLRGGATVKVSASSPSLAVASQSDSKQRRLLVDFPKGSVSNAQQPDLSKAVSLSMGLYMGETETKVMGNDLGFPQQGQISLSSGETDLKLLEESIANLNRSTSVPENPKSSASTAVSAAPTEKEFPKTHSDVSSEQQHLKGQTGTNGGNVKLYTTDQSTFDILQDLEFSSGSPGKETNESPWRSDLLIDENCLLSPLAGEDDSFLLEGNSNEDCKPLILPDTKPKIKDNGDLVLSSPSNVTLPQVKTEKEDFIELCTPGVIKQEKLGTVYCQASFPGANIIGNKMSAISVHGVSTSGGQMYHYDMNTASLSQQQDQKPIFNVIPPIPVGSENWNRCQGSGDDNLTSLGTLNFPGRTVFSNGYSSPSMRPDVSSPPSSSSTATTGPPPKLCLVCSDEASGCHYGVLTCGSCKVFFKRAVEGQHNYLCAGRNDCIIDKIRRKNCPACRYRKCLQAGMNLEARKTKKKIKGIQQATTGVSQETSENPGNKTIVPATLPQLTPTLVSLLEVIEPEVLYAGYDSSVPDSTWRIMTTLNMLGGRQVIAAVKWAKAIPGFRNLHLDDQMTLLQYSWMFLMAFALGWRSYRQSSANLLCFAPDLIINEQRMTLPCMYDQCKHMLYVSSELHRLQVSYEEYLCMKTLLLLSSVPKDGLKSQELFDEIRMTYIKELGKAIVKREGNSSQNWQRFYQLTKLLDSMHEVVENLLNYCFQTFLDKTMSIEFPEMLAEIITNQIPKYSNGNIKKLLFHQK

[2] = molecular target: T1, glucocorticoid receptor (GR, nuclear extract of HeLa cells) (Homo sapiens); assay: EMSA supershift; conditions: dexamethasone, complex A; EMSA: 10 mM HEPES pH 8.0, 0.1 mM EDTA, 2 mM DTT, 50 mM NaCl, 5 mM MgCl2, 50 mM KCl, 4 mM spermidine, 4% Ficoll, 1 ug poly(dI-dC); preincubation 10 min 4 C; protein in an extract; label: 32P
[3] = molecular target: T1, glucocorticoid receptor (GR, nuclear extract of HeLa cells) (Homo sapiens); assay: EMSA; conditions: EMSA: 10 mM HEPES pH 8.0, 0.1 mM EDTA, 2 mM DTT, 50 mM NaCl, 5 mM MgCl2, 50 mM KCl, 4 mM spermidine, 4% Ficoll, 1 ug poly(dI-dC), preincubation 10 min 4 C, protein in an extract, label: 32P

“AGCTACGCGAGATGACGATAGCT / AGCTATCGTCGTCTCGCGTAGCT [Classic GRE mut]”: no binding ([1]; 50-fold excess cold vs classic GRE wt probe, complex A).
“AGCTGGTACAAACTGTTCTAGCT (double strand) [Classic GRE wt]”: binds ([1]; 50-fold excess cold abolishes complex A, label: 32P); binds [2]; binds more weakly ([3]; dexamethasone + GW3965, with or without LXRα/RXRα). “AGCTGGTACAAACTGTTCTAGCT (double strand) [Classic GRE wt]”: binds more weakly ([3]; dexamethasone + recombinant LXRα/RXRα (dose-dependent decrease of complex A)).
“GCACTACGCGGAAGGACTACCAAGTTAATAATT (double strand) [G6Pase GRE mut]”: no binding ([1]; 50-fold excess cold vs G6Pase GRE wt probe, complex A).
“GCACTGTCAAGCAGTGTGCCCAAGTTAATAATT (double strand) [G6Pase GRE wt]”: binds ([1]; 50-fold excess cold vs classic GRE wt probe abolishes complex A, label: 32P); binds more weakly ([3]; dexamethasone + recombinant LXRα/RXRα); binds ([3]; dexamethasone, complex A).
